Taken from: PubChem BioAssay AID493246 (Drosophila RNAi Screening Center, 2011)
Assay: 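Identify essential fly genes by loss of cell viability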 (primary screen). System: Drosophila Kc and S2R+ cells. Reagents: long dsRNA against Drosophila genes. Measured: 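Raw, unnormalised count of remaining cells in each well; per-plate z-scores of cell number underlie the calls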. Reading the numbers: Kc cell number and S2R+ cell number: higher = more cells remaining. Hit rule: 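Counted as a hit if cell number falls by a z-score of at least 3 within its plate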.
In all, the deposit lists about 21,000 reagents; below is an unselected part of those that have a named target and a result. Over the whole deposit, 429 (2%) are marked active. 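Values are raw and not normalised between plates; calls rest on per-plate z-scores that were not deposited.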 Unmarked entries are inactive. Reagents against one gene are numbered here. The record does not give: the amount of reagent, the time to read-out.

For CG4907 (GeneID 42686), the entry reads Kc cell number, rep 1 = 1.64e6; Kc cell number, rep 2 = 1.61e6; S2R+ cell number, rep 1 = 1.02e6; S2R+ cell number, rep 2 = 1.14e6.
After knock-down of ZnT33D (GeneID 326167) the results were Kc cell number, rep 1 = 1.46e6; Kc cell number, rep 2 = 1.54e6; S2R+ cell number, rep 1 = 1.22e6; S2R+ cell number, rep 2 = 1.35e6.
CG3225 (GeneID 33680) gave Kc cell number, rep 1 = 1.22e6; Kc cell number, rep 2 = 1.31e6; S2R+ cell number, rep 1 = 7.40e5; S2R+ cell number, rep 2 = 7.32e5.
Against MED6 (GeneID 44728) the deposit lists Kc cell number, rep 1 = 1.63e6; Kc cell number, rep 2 = 1.70e6; S2R+ cell number, rep 1 = 1.20e6; S2R+ cell number, rep 2 = 1.32e6.
Against spz3 (GeneID 34077) #1 the deposit lists Kc cell number, rep 1 = 1.43e6; Kc cell number, rep 2 = 1.63e6; S2R+ cell number, rep 1 = 1.21e6; S2R+ cell number, rep 2 = 1.38e6.
After knock-down of spz3 (GeneID 34077) #2, the record shows Kc cell number, rep 1 = 1.65e6; Kc cell number, rep 2 = 1.63e6; S2R+ cell number, rep 1 = 1.18e6; S2R+ cell number, rep 2 = 1.38e6.
DCTN6-p27 (GeneID 35195) showed Kc cell number, rep 1 = 1.37e6; Kc cell number, rep 2 = 1.48e6; S2R+ cell number, rep 1 = 9.88e5; S2R+ cell number, rep 2 = 1.09e6.
Depletion of CG14903 (GeneID 42014) came out at: Kc cell number, rep 1 = 1.47e6; Kc cell number, rep 2 = 1.50e6; S2R+ cell number, rep 1 = 1.08e6; S2R+ cell number, rep 2 = 1.28e6.
With knock-down of ZnT35C (GeneID 34890) the results were Kc cell number, rep 1 = 1.52e6; Kc cell number, rep 2 = 1.70e6; S2R+ cell number, rep 1 = 1.16e6; S2R+ cell number, rep 2 = 1.27e6.
Against Prat (GeneID 40935) the deposit lists Kc cell number, rep 1 = 1.64e6; Kc cell number, rep 2 = 1.62e6; S2R+ cell number, rep 1 = 1.34e6; S2R+ cell number, rep 2 = 1.38e6.

2 successive entries already listed, for reference:
spz3 (GeneID 34077) #2 | Kc cell number, rep 1: 1.65e6; Kc cell number, rep 2: 1.63e6; S2R+ cell number, rep 1: 1.18e6; S2R+ cell number, rep 2: 1.38e6
DCTN6-p27 (GeneID 35195) | Kc cell number, rep 1: 1.37e6; Kc cell number, rep 2: 1.48e6; S2R+ cell number, rep 1: 9.88e5; S2R+ cell number, rep 2: 1.09e6

The listing continues.
Silencing of CG9759 (GeneID 41661) came out at: Kc cell number, rep 1 = 1.53e6; Kc cell number, rep 2 = 1.66e6; S2R+ cell number, rep 1 = 1.37e6; S2R+ cell number, rep 2 = 1.57e6.
Knock-down of CG12003 (GeneID 38183) came out at: Kc cell number, rep 1 = 1.32e6; Kc cell number, rep 2 = 1.49e6; S2R+ cell number, rep 1 = 1.06e6; S2R+ cell number, rep 2 = 1.20e6.
Silencing of MFS18 (GeneID 33650) came out at: Kc cell number, rep 1 = 1.52e6; Kc cell number, rep 2 = 1.50e6; S2R+ cell number, rep 1 = 8.69e5; S2R+ cell number, rep 2 = 1.02e6.
After knock-down of tty (GeneID 33109), the record shows Kc cell number, rep 1 = 1.64e6; Kc cell number, rep 2 = 1.63e6; S2R+ cell number, rep 1 = 1.04e6; S2R+ cell number, rep 2 = 1.19e6.
Silencing of CG13127 (GeneID 34335) came out at: Kc cell number, rep 1 = 1.52e6; Kc cell number, rep 2 = 1.58e6; S2R+ cell number, rep 1 = 1.26e6; S2R+ cell number, rep 2 = 1.29e6.
Against CG43345 (GeneID 35387), the entry reads Kc cell number, rep 1 = 1.39e6; Kc cell number, rep 2 = 1.47e6; S2R+ cell number, rep 1 = 1.14e6; S2R+ cell number, rep 2 = 1.11e6.
Knock-down of CG13084 (GeneID 35229) came out at: Kc cell number, rep 1 = 1.53e6; Kc cell number, rep 2 = 1.59e6; S2R+ cell number, rep 1 = 1.35e6; S2R+ cell number, rep 2 = 4.52e5.
Against CG4960 (GeneID 43115), the values are Kc cell number, rep 1 = 1.59e6; Kc cell number, rep 2 = 1.49e6; S2R+ cell number, rep 1 = 9.54e5; S2R+ cell number, rep 2 = 1.03e6.
Against Naa30B (GeneID 317976) the deposit lists Kc cell number, rep 1 = 1.24e6; Kc cell number, rep 2 = 1.38e6; S2R+ cell number, rep 1 = 1.03e6; S2R+ cell number, rep 2 = 1.21e6.
After knock-down of CG13171 (GeneID 36323), the screen gave Kc cell number, rep 1 = 1.58e6; Kc cell number, rep 2 = 1.54e6; S2R+ cell number, rep 1 = 1.23e6; S2R+ cell number, rep 2 = 1.30e6.
Silencing of Jhbp7 (GeneID 43035) gave: Kc cell number, rep 1 = 1.70e6; Kc cell number, rep 2 = 1.77e6; S2R+ cell number, rep 1 = 1.02e6; S2R+ cell number, rep 2 = 1.10e6.
